{"source": "patent US20220186232A1", "target": "T1, mouse IL-10 receptor (IL-10R) on mouse CD4 T cells (mouse) (UniProt Q61727)", "T1 sequence (looked up)": "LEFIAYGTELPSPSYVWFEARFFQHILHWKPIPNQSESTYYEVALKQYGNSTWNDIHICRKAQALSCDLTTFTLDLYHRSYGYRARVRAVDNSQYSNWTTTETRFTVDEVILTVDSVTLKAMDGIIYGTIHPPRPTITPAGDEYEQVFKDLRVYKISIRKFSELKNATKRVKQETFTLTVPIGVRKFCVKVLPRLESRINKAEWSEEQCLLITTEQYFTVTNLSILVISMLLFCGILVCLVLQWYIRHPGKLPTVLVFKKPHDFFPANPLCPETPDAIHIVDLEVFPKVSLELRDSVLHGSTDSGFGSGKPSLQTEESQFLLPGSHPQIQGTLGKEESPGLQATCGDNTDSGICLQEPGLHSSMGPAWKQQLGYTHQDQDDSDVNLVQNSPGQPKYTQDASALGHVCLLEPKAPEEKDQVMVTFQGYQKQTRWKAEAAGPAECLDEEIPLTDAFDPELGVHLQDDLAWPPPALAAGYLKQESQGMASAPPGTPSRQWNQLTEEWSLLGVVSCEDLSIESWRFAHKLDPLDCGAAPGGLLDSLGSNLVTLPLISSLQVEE", "assay": "flow cytometry, mouse CD4 T cells transfected with mouse memIL-10 mRNA; binding inferred from blocked antibody staining", "note": "These are yes or no findings as the source states them, for the method shown. Some results given as binding are weak or reduced against the parent protein; the word gives no strength."}
{"substance": "mouse membrane-anchored homodimeric IL-10 (mouse memIL-10), short linker (from UniProt P18893 19-178; P18893 19-178) (ligand)", "values": [{"measurement": "binding", "result": "binds"}]}
